Test results: PubChem BioAssay AID2685 (National Center for Advancing Translational Sciences (NCATS), 2010)
This is one part of the list. The main result of the screen is listed elsewhere. These columns were measured beside it and carry no call. Compounds called inactive in the main read-out are mostly missing here. Words in brackets tell the shape of the fitted curve; partial curves, single points and poor fits give uncertain potencies.

Assay: qHTS Assay for Lipid Storage Modulators in Drosophila S3 Cells;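 for cell number change: cells counted by Cell Tracker Red CMTPX staining in the red channel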
Conditions: BODIPY lipid droplet fluorescence, 18-24 h; for cell number change: measured here: cell count max response, cells fed with added oleic acid
Procedure, shortened: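 Laser-scanning cytometry quantifies lipid droplet accumulation (500–530 nm total intensity; droplet/cell object ratio) in oleic acid-fed (400 uM added) Drosophila S3 cells treated with a concentration series. 20 uM Triacsin C defined 100% inhibition.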

[1] = measured here: lipid fluorescence (Fed channel) AC50, cells fed with added oleic acid
[2] = measured here: cell number channel AC50, cells fed with added oleic acid

Structure (SMILES) | cell number change [%] | AC50 [1] | AC50 [2]
O=C(CN1C(=O)COc2ccccc21)N(Cc1ccc2c(c1)OCO2)CC1CCCO1 (configuration not stated) | -6.31 | 0.00461 µM [rising, full curve, poor fit] | 
CC(C)OC(=O)CC(=O)c1sc2nc3c(cc2c1N)CN(C)CC3 | 32.2 |  | 4.61 µM [rising, full curve, poor fit]
O=C(c1ccc(Cn2cc(Br)cn2)o1)N1N=C(C(F)F)CC1(O)C(F)F (configuration not stated) | -18.1 |  | 
COc1ccc(-c2cc3ccccc3n2CC(O)Cn2nc(C)cc2C)cc1 (configuration not stated) | 40.1 |  | 4.11 µM [rising, full curve, poor fit]
Cc1cc(NC(=O)Cc2ccccc2)ccc1NC(=O)c1cccs1 | 22.2 | 13 µM [rising, partial curve, poor fit] | 
S=C(Nc1ccc2cn[nH]c2c1)Nc1ccc(Cl)cc1Cl | 4.46 |  | 0.731 µM [rising, single point]
COC(=O)[C@@H](NC(=O)Nc1ccc(C(C)=O)cc1)C(C)C | -19.3 |  | 
O=C(NCC1CCCCC1)c1cc([N+](=O)[O-])ccc1Cl | 10.1 |  | 
COC(=O)c1cc(Br)c(=O)n(-c2ccccc2OC)c1 | -5.27 | 0.731 µM [rising, single point] | 
CCC/C=N/NC(=O)C1COc2ccccc2O1 (configuration not stated) | -11.8 |  | 1.16 µM [falling, partial curve]
O=C1c2ccccc2C(=O)N1CCSC(=S)N1CCOCC1 | 3.63 |  | 6.51 µM [rising, single point]
CC(NC(=S)NC1CCCCC1)C(c1ccccc1)N1CCOCC1 (configuration not stated) | 3.66 | 0.82 µM [falling, full curve, poor fit] | 0.461 µM [falling, single point]
O=C(CCCCCn1c(=S)[nH]c2cc3c(cc2c1=O)OCO3)N1CCN(C2CCCCC2)CC1 | -6.98 |  | 
O=C(NCCc1ccccc1)C1CCN(S(=O)(=O)c2ccc(Br)s2)CC1 |  | 11.6 µM [rising, single point] | 
Cc1ccc(NC(=O)CSc2ccccc2)cc1S(=O)(=O)N1CCOCC1 | -50 | 0.731 µM [falling, single point] | 
O=C(N/N=C/c1cc(Cl)cc([N+](=O)[O-])c1O)NC12CC3CC(CC(C3)C1)C2 | -31 | 2.91 µM [falling, partial curve, poor fit] | 32.6 µM [falling, single point]
C[C@@H]1CCC(=O)N(CC[C@H](N=[N+]=[N-])c2ccccc2)CC1 | 12.6 | 29.1 µM [falling, single point] | 
CCOc1ccccc1NC(=O)C1CCCN(S(=O)(=O)c2ccccc2)C1 (configuration not stated) | -14.6 | 16.4 µM [falling, single point] | 
COc1ccc(S(=O)(=O)N(Cc2nc3ccccc3c(=O)[nH]2)C2CCCC2)cc1 | 1.44 | 5.8 µM [rising, partial curve] | 
COc1cc2cc(C(=O)NCCc3ccccc3)[nH]c2cc1OC | 45.4 |  | 4.61 µM [rising, single point]

Structure (SMILES) | cell number change [%] | AC50 [1] | AC50 [2]
CCOC(=O)c1ccccc1NC(=O)c1c(F)c(F)c(F)c(F)c1F | -34.2 | 29.1 µM [falling, single point] | 29.1 µM [falling, single point]
Cc1ccc2c(CN3CC(C)CC(C)C3)cc(=O)oc2c1C (configuration not stated) | 104 | 29.1 µM [rising, single point] | 20.6 µM [rising, partial curve]
Cc1ccc(S(=O)(=O)N2CCC[C@H]2C(=O)OCCN2C(=O)c3ccccc3C2=O)cc1 | -8 |  | 
Cc1cc(OCC(=O)NN2C(=O)c3ccccc3C2=O)ccc1Cl | 46.7 |  | 2.06 µM [rising, full curve, poor fit]
CC1CCCCN1C(=O)COC(=O)c1cc(-c2cccs2)nn1-c1ccccc1 (configuration not stated) | -4.48 | 6.51 µM [rising, full curve] | 
CCN(CC)c1ccc(C=Nc2ccc(OC)c(S(=O)(=O)N3CCOCC3)c2)c(O)c1 | -8.94 |  | 
COc1ccccc1NC(=O)c1cc2cc(Br)ccc2cc1O | -49.5 |  | 29.1 µM [falling, single point]
Nc1nc(N2CCOCC2)nc2ccccc12 | 32.5 |  | 9.2 µM [rising, partial curve]
OC12CCCCC1C(c1ccc3c(c1)OCO3)N(Cc1cccc(F)c1)CC2 (configuration not stated) | -30 | 0.651 µM [falling, full curve, poor fit] | 0.731 µM [falling, full curve, poor fit]
Cc1cccc(C)c1NC(=O)C(=O)NCC1CCCN1S(=O)(=O)c1cccs1 (configuration not stated) |  | 8.2 µM [rising, partial curve] | 
Cn1c(SCC(=O)N2CCCC2)nnc1-c1cccs1 | 8.7 | 29.1 µM [rising, single point] | 
CCC1CSC(Nc2ccc(C(=O)/C=C/c3ccc(Oc4ccccc4)cc3)cc2)=N1 (configuration not stated) | 50 | 29.1 µM [falling, partial curve, poor fit] | 6.51 µM [rising, partial curve, poor fit]
N#C/C(=C/c1ccc(-c2ccc(S(N)(=O)=O)cc2)o1)C(=O)Nc1ccccc1 | -33.5 |  | 23.1 µM [falling, single point]
O=C(NCCCN1CCOCC1)c1cc(-c2ccc(Cl)c(Cl)c2)on1 | -11.9 | 29.1 µM [rising, single point] | 
CC(C)C(NS(=O)(=O)c1ccccc1)C(=O)N1CCN(C(=O)c2ccco2)CC1 (configuration not stated) | -12.5 | 29.1 µM [rising, single point] | 
CC(=O)Nc1ccc(NC(=O)CC2(CC(=O)N3CCOCC3)CCCC2)cc1 | -5.76 | 0.00517 µM [rising, full curve, poor fit] | 
Cc1ccc(SCc2nc3ncccn3c2Br)cc1 | 36.7 | 3.66 µM [rising, full curve, poor fit] | 5.8 µM [rising, full curve, poor fit]
O=C(NCCc1ccccn1)c1ccc(OC2CCN(Cc3ccccn3)CC2)cc1 | 25.5 |  | 
O=C(OC(C(=O)NCC1CCCO1)c1ccc(F)cc1)c1ccco1 (configuration not stated) | -2.08 | 0.00651 µM [falling, full curve] | 
Cc1nc2nc(SCc3ccccc3)nn2c(C)c1C | -21.2 | 2.91 µM [rising, partial curve, poor fit] | 

Structure (SMILES) | cell number change [%] | AC50 [1] | AC50 [2]
COC1CCN(Cc2c(C(=O)N3C[C@@H](C)O[C@@H](C)C3)nc3ccc(Cl)cn23)CC1 | -27.4 | 20.6 µM [falling, partial curve, poor fit] | 
CNC(=O)/C(=C\c1ccc([N+](=O)[O-])cc1)NC(C)=O | -26.8 | 0.0058 µM [falling, full curve, poor fit] | 
Cc1[nH]c2ccccc2c1N=Nc1cccc(C(=O)O)c1 | 12.1 | 6.51 µM [rising, partial curve] | 
Cn1c(SCC(=O)N2c3ccccc3Sc3ccccc32)nc2ccccc21 | 2.7 | 0.58 µM [falling, partial curve] | 6.51 µM [rising, single point]
Cc1cc(C)cc(OCC(=O)Nc2cccc(S(=O)(=O)NC3=NCCC3)c2)c1 | 22.8 | 0.291 µM [rising, full curve, poor fit] | 7.31 µM [rising, partial curve, poor fit]
Cc1ccc(N(C(=O)Cn2nnc3ccccc32)C(C(=O)NC2CCCCC2)c2cn(C)nc2C)cc1 (configuration not stated) | 0.326 | 20.6 µM [rising, single point] | 
NC(=O)N1CCCC1C(=O)Nc1ccc(Cl)c(Cl)c1 (configuration not stated) | 23.8 | 20.6 µM [falling, partial curve] | 
CC1(C)CC(CC(=O)O)(c2ccccc2)CCO1 (configuration not stated) | -8.81 | 29.1 µM [falling, single point] | 
CCN(CC)CCCNc1nc2cc(OC)c(OC)cc2c2nc(-c3ccccc3)nn12 | -28.6 | 29.1 µM [falling, single point] | 
Cc1cc(C)cc(Nc2cc(=O)n(C3CCCCC3)c(=O)[nH]2)c1 | -13.1 | 6.51 µM [falling, single point] | 
O=C(CSc1nnnn1-c1ccc(F)cc1)NC1CCCCC1 | -5.73 | 0.0164 µM [falling, full curve, poor fit] | 
CC(C)Cn1c(N)c(C(=O)COC(=O)CCNS(=O)(=O)c2ccccc2)c(=O)n(C)c1=O |  |  | 6.51 µM [rising, single point]
CCCC(=O)Nc1cc2c(cc1C(=O)c1ccccc1)OCCO2 | 13.7 | 6.51 µM [rising, partial curve] | 
O=C(COC(=O)c1ccc(Cl)c(Cl)c1)Nc1cccnc1Cl | 3.26 | 20.6 µM [rising, single point] | 
O=C(NC1CCCCCC1)c1c(O)c2cccc3c2n(c1=O)CCC3 | 25.6 | 16.4 µM [rising, partial curve, poor fit] | 
Cc1ccc2nc(C)cc(Nc3ccc4c(c3)OCCO4)c2c1 | 6.3 | 0.00517 µM [rising, full curve, poor fit] | 
c1ccc(COc2cccc(CN3CCN(c4ccccn4)CC3)c2)cc1 | -25.1 | 9.2 µM [falling, partial curve, poor fit] | 
CC(C)(O)CNC(=O)Nc1ccc(Cl)c(Cl)c1 | 27.7 | 2.31 µM [rising, partial curve] | 1.3 µM [rising, partial curve]
COc1ccc(CCN(C)C2CCCN(C(=O)CCSC)C2)cc1OC (configuration not stated) | 19.9 |  | 

Not a retest: three of the compounds above.
Structure (SMILES) | cell number change [%] | AC50 [1] | AC50 [2]
O=C(COC(=O)c1ccc(Cl)c(Cl)c1)Nc1cccnc1Cl | 3.26 | 20.6 µM [rising, single point] | 
O=C(NC1CCCCCC1)c1c(O)c2cccc3c2n(c1=O)CCC3 | 25.6 | 16.4 µM [rising, partial curve, poor fit] | 
Cc1ccc2nc(C)cc(Nc3ccc4c(c3)OCCO4)c2c1 | 6.3 | 0.00517 µM [rising, full curve, poor fit] | 
